Paper doi:10.1101/2025.05.23.654710

Key:
[1] = target: T1, Msn2 IDR (Saccharomyces cerevisiae) (UniProt P33748); assay: EMSA
T1 sequence: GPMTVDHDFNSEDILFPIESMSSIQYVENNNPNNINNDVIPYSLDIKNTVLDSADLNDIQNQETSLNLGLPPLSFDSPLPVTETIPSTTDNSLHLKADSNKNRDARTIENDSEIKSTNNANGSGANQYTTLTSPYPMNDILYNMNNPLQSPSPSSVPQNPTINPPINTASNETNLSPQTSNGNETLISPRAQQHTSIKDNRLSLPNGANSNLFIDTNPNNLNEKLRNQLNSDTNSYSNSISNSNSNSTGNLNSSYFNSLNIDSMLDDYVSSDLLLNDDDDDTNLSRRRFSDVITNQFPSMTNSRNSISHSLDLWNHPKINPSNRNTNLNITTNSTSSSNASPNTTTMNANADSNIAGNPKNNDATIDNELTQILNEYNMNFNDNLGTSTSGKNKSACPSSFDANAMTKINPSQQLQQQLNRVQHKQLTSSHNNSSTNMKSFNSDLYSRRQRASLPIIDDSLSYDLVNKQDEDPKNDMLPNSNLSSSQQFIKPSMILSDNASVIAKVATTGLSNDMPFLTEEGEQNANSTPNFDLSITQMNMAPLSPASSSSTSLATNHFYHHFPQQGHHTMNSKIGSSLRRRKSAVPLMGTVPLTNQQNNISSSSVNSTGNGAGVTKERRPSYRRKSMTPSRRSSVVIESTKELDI

[2] = target: T2, Msn2 DBD (Saccharomyces cerevisiae) (UniProt P33748); assay: EMSA
T2 sequence: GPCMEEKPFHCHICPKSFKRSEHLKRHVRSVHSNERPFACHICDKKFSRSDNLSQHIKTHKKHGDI

[3] = target: T3, Msn2 WT (Saccharomyces cerevisiae) (UniProt P33748); assay: mass photometry; conditions: 50 nM each, more uniform DNA+1P to DNA+3P, higher free protein
T3 sequence: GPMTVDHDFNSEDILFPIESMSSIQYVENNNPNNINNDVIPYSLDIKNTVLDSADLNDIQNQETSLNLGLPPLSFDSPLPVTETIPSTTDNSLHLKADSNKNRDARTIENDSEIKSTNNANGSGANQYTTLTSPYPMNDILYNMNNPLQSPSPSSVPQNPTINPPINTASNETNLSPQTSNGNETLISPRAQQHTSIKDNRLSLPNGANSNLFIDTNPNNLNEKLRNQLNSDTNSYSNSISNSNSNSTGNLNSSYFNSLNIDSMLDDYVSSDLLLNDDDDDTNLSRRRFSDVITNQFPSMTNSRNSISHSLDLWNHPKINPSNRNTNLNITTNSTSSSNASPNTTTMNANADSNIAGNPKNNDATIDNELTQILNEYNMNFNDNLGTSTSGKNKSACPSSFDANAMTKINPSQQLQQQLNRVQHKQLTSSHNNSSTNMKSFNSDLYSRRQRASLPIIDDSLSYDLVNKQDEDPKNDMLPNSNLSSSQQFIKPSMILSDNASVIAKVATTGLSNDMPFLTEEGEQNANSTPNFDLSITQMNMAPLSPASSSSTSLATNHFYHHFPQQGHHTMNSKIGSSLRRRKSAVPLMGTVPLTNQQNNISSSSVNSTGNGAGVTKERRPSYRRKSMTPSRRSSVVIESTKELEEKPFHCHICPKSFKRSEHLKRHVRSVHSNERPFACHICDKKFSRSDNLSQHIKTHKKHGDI

“CCTGCCACCTACACATACTTCCTACACAACCTGAGTCGTATTAATTTCGCG / CGCGAAATTATACGACTCAAGTTGTGTAGGAAGTATGTGTAGGTGGCGAGG [51 bp DNA without motif]”: binds [1]; no binding [2]; binds [3].

For at least one entry, the source does not settle the construct or the ends of the probe. For part of these data: No signal at the amounts used counts as a negative. Tags and fusion partners may be left off the protein sequences shown.
